The other results are listed elsewhere or left out. Residues, ends and D or L forms follow the SMILES beside them. *: point of attachment. Cbz = O=C(OCc1ccccc1)*
What was measured:
Assay in all cases: log2 fold change, soluble protein after heating vs DMSO (PISA); higher = thermal stabilisation; K562 cells, 10 uM, 30 min; active = over 0.2 and 3.5 SD of the protein, either way, in both replicates (recomputed)
[1] = compound: C#Cc1cccc(Nc2ncnc3cc(OCCOC)c(OCCOC)cc23)c1 [erlotinib]
How it was run: (§1)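 K562 cells at 2×10^6 cells/mL were exposed to 10 μM compound for 30 min, then aliquots were heated for 3 min across 48°C-58°C, pooled, and extracted in PBS containing 0.5% NP-40 at 4°C. The supernatant after 21,000xg for 90 min was taken as soluble protein and measured by TMTpro 16plex LC-MS/MS with channel sums equalised. Thermal stability is reported relative to control samples, with values from duplicates. Fold changes are given on a log2 scale.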

Chains of the proteins cited; added tags and fusions are not shown. Lines headed by an entry give the natural chain unless they say otherwise; changes in a name come on top.
UniProt Q5T3J3: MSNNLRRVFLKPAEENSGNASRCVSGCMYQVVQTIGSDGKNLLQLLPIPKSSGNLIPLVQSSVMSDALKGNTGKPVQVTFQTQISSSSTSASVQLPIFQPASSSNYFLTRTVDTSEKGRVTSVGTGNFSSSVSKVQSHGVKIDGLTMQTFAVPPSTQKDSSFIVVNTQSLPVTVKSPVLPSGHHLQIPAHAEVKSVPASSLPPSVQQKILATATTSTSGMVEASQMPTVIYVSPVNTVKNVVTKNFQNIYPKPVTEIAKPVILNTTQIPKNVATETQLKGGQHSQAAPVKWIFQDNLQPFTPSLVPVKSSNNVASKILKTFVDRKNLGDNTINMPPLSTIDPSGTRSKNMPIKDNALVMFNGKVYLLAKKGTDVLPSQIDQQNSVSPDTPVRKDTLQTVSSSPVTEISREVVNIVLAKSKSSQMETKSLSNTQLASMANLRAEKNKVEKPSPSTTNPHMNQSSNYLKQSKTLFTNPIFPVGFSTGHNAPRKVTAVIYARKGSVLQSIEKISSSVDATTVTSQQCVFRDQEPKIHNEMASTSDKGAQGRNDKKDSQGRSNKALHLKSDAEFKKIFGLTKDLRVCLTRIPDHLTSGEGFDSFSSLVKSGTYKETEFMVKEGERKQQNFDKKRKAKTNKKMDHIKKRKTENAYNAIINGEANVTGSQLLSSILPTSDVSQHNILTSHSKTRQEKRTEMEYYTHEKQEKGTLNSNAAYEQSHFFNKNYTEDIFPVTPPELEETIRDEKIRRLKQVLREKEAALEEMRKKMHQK
UniProt Q7L5N7: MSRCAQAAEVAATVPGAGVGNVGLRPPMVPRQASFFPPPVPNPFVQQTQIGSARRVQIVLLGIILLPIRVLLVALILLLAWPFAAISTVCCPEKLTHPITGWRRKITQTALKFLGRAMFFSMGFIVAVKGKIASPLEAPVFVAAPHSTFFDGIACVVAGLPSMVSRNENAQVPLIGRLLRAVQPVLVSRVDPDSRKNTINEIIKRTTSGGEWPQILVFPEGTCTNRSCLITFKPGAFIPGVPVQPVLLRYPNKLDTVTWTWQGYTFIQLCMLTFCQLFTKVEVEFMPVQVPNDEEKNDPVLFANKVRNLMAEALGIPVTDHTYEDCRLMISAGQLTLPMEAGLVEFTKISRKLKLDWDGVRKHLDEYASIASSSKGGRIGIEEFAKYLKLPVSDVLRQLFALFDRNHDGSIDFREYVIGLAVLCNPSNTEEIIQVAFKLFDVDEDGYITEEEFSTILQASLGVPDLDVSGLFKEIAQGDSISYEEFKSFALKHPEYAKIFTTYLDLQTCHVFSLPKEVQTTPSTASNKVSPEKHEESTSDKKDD
UniProt Q8NC56: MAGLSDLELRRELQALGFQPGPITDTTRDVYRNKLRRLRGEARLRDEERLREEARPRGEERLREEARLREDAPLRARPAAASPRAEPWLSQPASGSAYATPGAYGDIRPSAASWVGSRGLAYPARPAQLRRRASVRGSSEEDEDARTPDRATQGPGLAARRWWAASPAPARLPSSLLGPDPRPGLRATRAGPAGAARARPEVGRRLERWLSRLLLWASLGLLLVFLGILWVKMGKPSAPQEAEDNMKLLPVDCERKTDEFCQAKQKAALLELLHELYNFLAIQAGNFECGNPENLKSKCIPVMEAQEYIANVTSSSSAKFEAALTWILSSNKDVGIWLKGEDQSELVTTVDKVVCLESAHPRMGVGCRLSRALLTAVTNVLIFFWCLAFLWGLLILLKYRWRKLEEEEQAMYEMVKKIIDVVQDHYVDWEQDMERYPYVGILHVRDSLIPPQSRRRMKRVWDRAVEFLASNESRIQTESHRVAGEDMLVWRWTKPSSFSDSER
UniProt Q8N9N7: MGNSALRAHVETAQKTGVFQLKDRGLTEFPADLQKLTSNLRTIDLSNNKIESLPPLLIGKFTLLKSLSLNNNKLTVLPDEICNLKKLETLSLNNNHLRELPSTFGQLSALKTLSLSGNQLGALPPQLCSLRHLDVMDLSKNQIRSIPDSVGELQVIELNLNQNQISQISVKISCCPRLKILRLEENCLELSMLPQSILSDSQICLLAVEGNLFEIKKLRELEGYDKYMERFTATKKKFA
UniProt Q9H6V9: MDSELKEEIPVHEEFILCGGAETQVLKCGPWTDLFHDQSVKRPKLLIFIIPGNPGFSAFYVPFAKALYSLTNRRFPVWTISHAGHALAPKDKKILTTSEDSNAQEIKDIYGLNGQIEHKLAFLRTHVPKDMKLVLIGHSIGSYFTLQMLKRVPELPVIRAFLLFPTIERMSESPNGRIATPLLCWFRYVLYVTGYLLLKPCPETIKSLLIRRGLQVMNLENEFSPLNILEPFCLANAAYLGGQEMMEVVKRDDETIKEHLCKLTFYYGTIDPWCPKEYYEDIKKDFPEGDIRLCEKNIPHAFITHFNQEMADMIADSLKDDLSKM
UniProt Q14847: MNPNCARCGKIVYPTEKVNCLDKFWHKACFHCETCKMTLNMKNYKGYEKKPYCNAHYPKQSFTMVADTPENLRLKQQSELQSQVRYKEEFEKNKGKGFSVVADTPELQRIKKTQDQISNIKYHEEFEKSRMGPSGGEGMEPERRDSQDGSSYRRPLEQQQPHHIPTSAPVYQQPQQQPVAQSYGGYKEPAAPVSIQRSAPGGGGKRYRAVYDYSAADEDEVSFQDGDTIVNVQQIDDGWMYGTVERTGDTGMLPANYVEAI
UniProt Q15031: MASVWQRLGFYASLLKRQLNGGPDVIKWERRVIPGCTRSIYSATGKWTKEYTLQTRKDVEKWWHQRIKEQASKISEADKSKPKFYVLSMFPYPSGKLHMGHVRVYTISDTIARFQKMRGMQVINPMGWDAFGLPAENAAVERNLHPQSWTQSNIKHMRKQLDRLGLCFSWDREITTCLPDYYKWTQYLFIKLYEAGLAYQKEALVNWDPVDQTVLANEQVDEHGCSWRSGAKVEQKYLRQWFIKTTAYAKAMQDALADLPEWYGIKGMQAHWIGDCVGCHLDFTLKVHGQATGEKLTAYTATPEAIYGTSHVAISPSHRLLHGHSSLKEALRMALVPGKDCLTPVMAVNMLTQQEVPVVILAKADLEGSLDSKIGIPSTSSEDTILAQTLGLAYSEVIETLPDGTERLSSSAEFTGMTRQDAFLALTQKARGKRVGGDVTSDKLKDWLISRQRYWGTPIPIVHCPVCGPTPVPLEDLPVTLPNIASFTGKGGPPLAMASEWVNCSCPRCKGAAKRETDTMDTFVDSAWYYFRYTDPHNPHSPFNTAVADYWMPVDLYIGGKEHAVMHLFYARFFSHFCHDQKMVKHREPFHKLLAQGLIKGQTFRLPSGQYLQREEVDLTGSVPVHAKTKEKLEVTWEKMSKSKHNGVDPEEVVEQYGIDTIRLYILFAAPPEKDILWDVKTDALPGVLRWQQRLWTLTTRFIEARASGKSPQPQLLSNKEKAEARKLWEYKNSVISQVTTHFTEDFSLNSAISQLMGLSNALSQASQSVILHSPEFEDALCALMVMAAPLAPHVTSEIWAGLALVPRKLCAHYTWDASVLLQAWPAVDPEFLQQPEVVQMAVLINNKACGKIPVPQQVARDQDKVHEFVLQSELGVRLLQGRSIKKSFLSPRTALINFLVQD
UniProt Q9C0E8: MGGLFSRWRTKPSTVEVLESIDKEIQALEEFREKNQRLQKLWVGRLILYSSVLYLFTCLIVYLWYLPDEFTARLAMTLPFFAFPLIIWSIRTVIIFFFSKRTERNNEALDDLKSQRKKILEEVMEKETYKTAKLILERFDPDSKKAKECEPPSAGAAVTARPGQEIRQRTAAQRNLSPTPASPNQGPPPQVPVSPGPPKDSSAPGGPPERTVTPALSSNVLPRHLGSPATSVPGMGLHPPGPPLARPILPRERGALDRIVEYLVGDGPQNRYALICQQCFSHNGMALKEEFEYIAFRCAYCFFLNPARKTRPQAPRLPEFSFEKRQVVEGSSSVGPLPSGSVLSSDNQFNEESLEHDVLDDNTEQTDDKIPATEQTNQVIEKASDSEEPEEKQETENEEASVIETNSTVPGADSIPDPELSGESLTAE
UniProt Q86WA8: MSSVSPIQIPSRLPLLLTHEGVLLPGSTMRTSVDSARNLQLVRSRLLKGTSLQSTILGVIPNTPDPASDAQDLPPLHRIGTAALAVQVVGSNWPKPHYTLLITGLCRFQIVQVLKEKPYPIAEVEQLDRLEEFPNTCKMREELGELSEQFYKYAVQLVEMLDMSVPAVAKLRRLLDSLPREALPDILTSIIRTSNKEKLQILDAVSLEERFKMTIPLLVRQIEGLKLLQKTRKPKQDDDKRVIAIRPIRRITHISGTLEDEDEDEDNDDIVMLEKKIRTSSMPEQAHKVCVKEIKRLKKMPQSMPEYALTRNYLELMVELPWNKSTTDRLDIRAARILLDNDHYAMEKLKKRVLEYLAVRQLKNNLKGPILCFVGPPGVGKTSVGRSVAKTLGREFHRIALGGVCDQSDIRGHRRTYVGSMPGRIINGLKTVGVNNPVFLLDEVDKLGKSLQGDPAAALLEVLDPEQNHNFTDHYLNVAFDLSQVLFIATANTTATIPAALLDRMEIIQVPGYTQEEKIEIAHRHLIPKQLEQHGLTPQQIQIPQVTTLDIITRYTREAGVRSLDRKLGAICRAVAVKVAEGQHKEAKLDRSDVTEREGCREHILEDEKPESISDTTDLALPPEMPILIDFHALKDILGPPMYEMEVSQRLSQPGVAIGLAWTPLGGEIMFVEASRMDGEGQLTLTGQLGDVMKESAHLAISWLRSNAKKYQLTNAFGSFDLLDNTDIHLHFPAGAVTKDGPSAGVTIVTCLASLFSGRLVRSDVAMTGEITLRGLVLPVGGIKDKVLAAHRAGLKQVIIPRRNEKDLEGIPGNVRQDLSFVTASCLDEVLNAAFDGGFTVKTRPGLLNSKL
UniProt Q8NF37: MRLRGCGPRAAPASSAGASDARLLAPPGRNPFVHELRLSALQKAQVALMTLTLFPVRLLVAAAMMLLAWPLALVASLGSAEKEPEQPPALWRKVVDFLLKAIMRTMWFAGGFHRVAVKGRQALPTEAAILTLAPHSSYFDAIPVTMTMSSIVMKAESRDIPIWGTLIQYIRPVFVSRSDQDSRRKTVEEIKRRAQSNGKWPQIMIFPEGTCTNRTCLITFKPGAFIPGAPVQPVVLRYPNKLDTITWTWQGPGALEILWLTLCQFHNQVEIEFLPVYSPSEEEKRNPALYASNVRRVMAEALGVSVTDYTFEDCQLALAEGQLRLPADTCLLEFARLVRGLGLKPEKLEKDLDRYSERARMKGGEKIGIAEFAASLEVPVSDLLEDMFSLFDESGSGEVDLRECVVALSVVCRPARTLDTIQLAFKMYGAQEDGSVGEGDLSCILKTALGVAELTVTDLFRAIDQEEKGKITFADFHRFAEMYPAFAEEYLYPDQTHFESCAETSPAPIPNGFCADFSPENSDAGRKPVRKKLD
UniProt Q8TCA0: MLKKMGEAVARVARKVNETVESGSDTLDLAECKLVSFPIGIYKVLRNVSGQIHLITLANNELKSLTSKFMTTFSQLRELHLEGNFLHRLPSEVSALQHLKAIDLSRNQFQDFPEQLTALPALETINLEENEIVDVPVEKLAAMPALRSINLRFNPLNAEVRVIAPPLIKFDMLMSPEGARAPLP
UniProt Q92615, whole entry, looked up: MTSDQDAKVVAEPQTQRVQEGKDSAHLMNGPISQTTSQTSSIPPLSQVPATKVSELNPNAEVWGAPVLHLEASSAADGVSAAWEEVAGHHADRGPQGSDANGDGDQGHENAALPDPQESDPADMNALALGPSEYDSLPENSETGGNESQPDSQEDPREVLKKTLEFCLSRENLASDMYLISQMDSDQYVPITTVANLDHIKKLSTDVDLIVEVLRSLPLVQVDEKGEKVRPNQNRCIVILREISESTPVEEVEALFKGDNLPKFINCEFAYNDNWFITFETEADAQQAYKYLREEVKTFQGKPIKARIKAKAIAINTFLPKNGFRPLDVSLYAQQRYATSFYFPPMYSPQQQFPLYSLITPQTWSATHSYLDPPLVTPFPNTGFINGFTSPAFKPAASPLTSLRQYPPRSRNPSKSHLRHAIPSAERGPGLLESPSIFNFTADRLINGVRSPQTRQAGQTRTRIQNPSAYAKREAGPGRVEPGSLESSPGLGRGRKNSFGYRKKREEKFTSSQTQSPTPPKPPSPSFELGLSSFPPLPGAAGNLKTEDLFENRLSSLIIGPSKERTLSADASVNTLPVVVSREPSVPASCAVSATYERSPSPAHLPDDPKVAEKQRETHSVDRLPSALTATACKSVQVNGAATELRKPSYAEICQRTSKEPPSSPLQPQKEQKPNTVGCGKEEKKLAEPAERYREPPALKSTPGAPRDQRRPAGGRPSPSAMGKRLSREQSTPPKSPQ

[2] = compound: C/C(=N\NC(=O)C1=CC(=CC=C1)S(=O)(=O)N2CCOCC2)/C3=C(C=CC(=C3)Cl)O
How it was run: as §1

[3] = compound: C1=CC(=C(C=C1Cl)C2=NC3=NC=CN=C3C(=N2)NC4=CC=NC=C4)F
How it was run: as §1

[4] = compound: C1=CC(=CC=C1C2=NC3=C(N2)C=C(C=C3)C(=O)N)OC4=CC=C(C=C4)Cl
How it was run: as §1

[5] = compound: C1=CC2=C(C=CC(=C2)/C=C\3/C(=O)NC(=NCC4=CC=CS4)S3)N=C1
How it was run: as §1

[6] = compound: C1=CC2=NC=CN=C2C=C1/C=C/3\C(=O)NC(=O)S3
How it was run: as §1

[7] = compound: C1=CC=C(C=C1)C2=NC(=C(N2)C3=CC=NC=C3)C4=CC(=C(C=C4)Cl)O
How it was run: as §1

[8] = compound: C1=CC=C2C(=C1)C3=NNC4=CC=CC(=C43)C2=O
How it was run: as §1

[9] = compound: C1CCN(C1)C(=O)NC2=CC=CC(=C2)NC3=NC=C(C(=N3)NCCC4=CN=CN4)Br
How it was run: as §1

[10] = compound: C1CN(CCC1(CC2=CC=C(C=C2)Cl)N)C3=NC=NC4=C3C=CN4
How it was run: as §1

[11] = compound: C1COCCN1CCN2C3=CC=CC=C3N=C2NC(=O)C4=CC(=CC=C4)[N+](=O)[O-] [IRAK-1-4 Inhibitor I]
How it was run: as §1

[12] = compound: C=CC(=O)N1CCC[C@@H](n2nc(-c3ccc(Oc4ccccc4)cc3)c3c(N)ncnc32)C1 [ibrutinib]
How it was run: as §1

[13] = compound: CC(=O)c1cnc2ccc(-c3cc(Cl)c(O)c(Cl)c3)nc2c1N[C@H]1CC[C@H](CN(C)C)CC1
How it was run: as §1

[14] = compound: CC(C)(C)Cn1c(N)nc2ccc(-c3[nH]c(C(C)(C)C)nc3-c3ccc(F)cc3)nc21 [ralimetinib]
How it was run: as §1

[15] = compound: CC(C)(O)CC(=O)NCCn1ccc2ncnc(Nc3ccc(Oc4cccc(C(F)(F)F)c4)c(Cl)c3)c21
How it was run: as §1

[16] = compound: CC(C)C1=C2N=C(C=C(N2N=C1)NCC3=CC=CC=C3)NCCCCCCN
How it was run: as §1

[17] = compound: CC(C)C[C@@H](C=O)NC(=O)[C@H](CC(C)C)NC(=O)[C@H](CC(C)C)NC(=O)OCc1ccccc1
How it was run: as §1

[18] = compound: CC(C)N(C[C@H]1O[C@@H](n2cnc3c(N)ncnc32)[C@H](O)[C@@H]1O)[C@H]1C[C@@H](CCc2nc3cc(C(C)(C)C)ccc3[nH]2)C1 [pinometostat]
How it was run: as §1

[19] = compound: CC1=C(C(CC(=O)N1)C2=CC=C(C=C2)C(F)(F)F)C(=O)NC3=C(C=C4C(=C3)C=NN4)F
How it was run: as §1

[20] = compound: CC1=C(C2=C(C=C1)C(=O)C3=CC=CC=C3N2CCCN)C
How it was run: as §1

Measured: log2 fold change

LRIF1 (UniProt Q5T3J3)
inactive: [1] 0.079 | [2] -0.052 | [3] -0.195 | [4] 0.076 | [5] -0.09 | [6] 0.007 | [7] -0.094 | [8] 0.021 | [9] -0.048 | [10] 0.08 | [11] -0.021 | [12] 0.052 | [13] 0.067 | [14] -0.037 | [15] 0.07 | [16] 0.071 | [17] 0.076 | [18] 0.012 | [19] 0.018 | [20] -0.183

LPCAT2 (UniProt Q7L5N7)
inactive: [1] -0.052 | [2] 0.182 | [3] 0.123 | [4] -0.061 | [5] 0.21 | [6] -0.015 | [7] 0.159 | [8] -0.022 | [9] 0.022 | [10] 0.036 | [11] -0.244 | [12] -0.22 | [13] -0.105 | [14] -0.141 | [15] -0.111 | [16] -0.16 | [17] 0 | [18] -0.127 | [20] 0.142

LIMS1 isoform 3 (UniProt P48059)
inactive: [1] 0.001 | [2] 0.012 | [3] 0.047 | [4] 0.015 | [5] 0.025 | [6] 0.036 | [7] 0.038 | [8] -0.053 | [9] -0.023 | [10] 0.056 | [11] -0.008 | [12] 0.018 | [13] -0.001 | [14] -0.019 | [15] -0.01 | [16] 0.075 | [17] -0.045 | [18] -0.063 | [19] 0.027 | [20] -0.011

LEMD2 (UniProt Q8NC56)
active: [16] -0.63
inactive: [1] 0.04 | [2] 0.007 | [3] -0.054 | [4] -0.002 | [5] 0.11 | [6] 0.001 | [7] 0.042 | [8] 0.008 | [9] -0.016 | [10] 0.046 | [11] 0.015 | [12] 0.082 | [13] -0.066 | [14] -0.02 | [15] -0.024 | [17] 0.022 | [18] -0.014 | [20] 0.131

LRRC57 (UniProt Q8N9N7)
inactive: [1] 0.01 | [2] 0.021 | [3] 0.032 | [4] 0.005 | [5] 0.044 | [6] 0.017 | [7] -0.026 | [8] -0.007 | [9] -0.019 | [10] 0.04 | [11] 0.037 | [12] -0.005 | [13] -0.024 | [14] -0.058 | [15] 0 | [16] 0.018 | [17] -0.013 | [18] -0.017 | [19] -0.02 | [20] 0.018

LDAH isoform 2 (UniProt Q9H6V9)
active: [15] 0.464 | [16] -0.286
inactive: [1] 0.116 | [2] 0.052 | [3] -0.101 | [4] -0.041 | [5] 0.047 | [6] 0 | [7] 0.018 | [8] 0 | [9] 0.06 | [10] -0.006 | [11] 0.039 | [12] 0.066 | [13] -0.039 | [14] 0.077 | [17] 0.019 | [18] 0 | [20] 0.073

LASP1 (UniProt Q14847)
inactive: [1] 0.016 | [2] -0.013 | [3] 0.058 | [4] 0.008 | [5] -0.009 | [6] 0 | [7] -0.035 | [8] 0 | [9] -0.001 | [10] 0.068 | [11] 0.039 | [12] 0 | [13] 0.005 | [14] -0.068 | [15] 0.005 | [16] 0.072 | [17] -0.04 | [18] -0.062 | [19] 0.024 | [20] -0.026

LETM1 (UniProt O95202)
inactive: [1] 0.001 | [2] 0.05 | [3] 0.069 | [4] 0.009 | [5] -0.008 | [6] 0.02 | [7] 0.046 | [8] 0.022 | [9] -0.02 | [10] 0.009 | [11] 0.019 | [12] -0.02 | [13] 0.029 | [14] -0.009 | [15] -0.044 | [16] -0.209 | [17] -0.067 | [18] -0.035 | [19] 0.019 | [20] 0.01

LARS2 (UniProt Q15031)
inactive: [1] 0.018 | [2] 0.076 | [3] 0.028 | [4] -0.022 | [5] 0.025 | [6] -0.007 | [7] 0.028 | [8] -0.013 | [9] -0.016 | [10] 0.002 | [11] 0.012 | [12] -0.02 | [13] 0.012 | [14] 0.044 | [15] -0.046 | [16] -0.124 | [17] 0 | [18] -0.05 | [19] -0.021 | [20] 0.046

LNPK (UniProt Q9C0E8)
inactive: [1] 0.011 | [2] -0.028 | [3] 0.05 | [4] 0 | [5] -0.018 | [6] 0.058 | [7] 0 | [8] -0.02 | [9] 0.007 | [10] 0.089 | [11] 0.041 | [12] 0.013 | [13] 0.004 | [14] -0.019 | [15] 0.016 | [16] 0.05 | [17] -0.011 | [18] -0.01 | [20] -0.035

LAMB1 (UniProt P07942)
inactive: [1] 0.025 | [2] 0.077 | [3] -0.021 | [4] 0.002 | [5] -0.009 | [6] 0.065 | [7] 0.026 | [8] 0.007 | [9] -0.035 | [10] 0.039 | [11] 0.034 | [12] -0.089 | [13] 0.017 | [14] -0.03 | [15] -0.012 | [16] -0.051 | [17] 0.012 | [18] 0.032 | [19] -0.006 | [20] -0.056

LPIN2 (UniProt Q92539)
inactive: [1] 0.021 | [2] -0.015 | [3] -0.084 | [4] 0.045 | [5] 0.05 | [6] 0.006 | [7] -0.012 | [8] -0.01 | [9] -0.04 | [10] 0.061 | [11] 0.002 | [12] 0.058 | [13] -0.276 | [14] 0.004 | [15] -0.079 | [16] -0.06 | [17] 0.071 | [18] 0.018 | [19] -0.009 | [20] -0.04

LONP2 (UniProt Q86WA8)
active: [17] -0.609
inactive: [1] 0.07 | [2] -0.111 | [3] 0.263 | [4] 0.131 | [5] -0.021 | [6] 0.065 | [7] 0.168 | [8] 0.067 | [9] -0.037 | [10] -0.002 | [11] -0.016 | [12] -0.023 | [13] -0.033 | [14] 0.103 | [15] -0.135 | [16] 0.004 | [18] -0.008 | [20] -0.009

2 entries picked at random from the list so far, as already listed:
LETM1 (UniProt O95202)
inactive: [1] 0.001 | [2] 0.05 | [3] 0.069 | [4] 0.009 | [5] -0.008 | [6] 0.02 | [7] 0.046 | [8] 0.022 | [9] -0.02 | [10] 0.009 | [11] 0.019 | [12] -0.02 | [13] 0.029 | [14] -0.009 | [15] -0.044 | [16] -0.209 | [17] -0.067 | [18] -0.035 | [19] 0.019 | [20] 0.01

LPCAT2 (UniProt Q7L5N7)
inactive: [1] -0.052 | [2] 0.182 | [3] 0.123 | [4] -0.061 | [5] 0.21 | [6] -0.015 | [7] 0.159 | [8] -0.022 | [9] 0.022 | [10] 0.036 | [11] -0.244 | [12] -0.22 | [13] -0.105 | [14] -0.141 | [15] -0.111 | [16] -0.16 | [17] 0 | [18] -0.127 | [20] 0.142

Continuation:

LPCAT1 (UniProt Q8NF37)
inactive: [1] 0.062 | [2] 0.044 | [3] 0.075 | [4] 0.014 | [5] 0.011 | [6] 0.065 | [7] 0.05 | [8] -0.006 | [9] -0.08 | [10] 0.101 | [11] 0.025 | [12] -0.014 | [13] 0.003 | [14] -0.04 | [15] -0.06 | [16] -0.055 | [17] 0 | [18] -0.008 | [19] -0.071 | [20] 0.013

LRRC20 (UniProt Q8TCA0)
inactive: [1] 0.036 | [2] 0.03 | [3] 0.255 | [4] -0.014 | [5] 0.139 | [6] 0.013 | [7] 0.049 | [8] 0.016 | [9] -0.098 | [10] 0.193 | [11] -0.013 | [12] -0.008 | [13] -0.047 | [14] -0.035 | [15] -0.103 | [16] 0.023 | [17] -0.018 | [18] -0.016 | [19] 0.007 | [20] 0.18

LARP4B (UniProt Q92615)
inactive: [1] -0.016 | [2] 0.032 | [3] -0.042 | [4] 0.017 | [5] -0.057 | [6] -0.03 | [7] 0.063 | [8] -0.06 | [9] -0.013 | [10] -0.042 | [11] -0.122 | [12] 0.007 | [13] -0.048 | [14] 0.135 | [15] 0.018 | [16] -0.213 | [17] 0.002 | [18] 0.143 | [20] 0.034

LRP8 (UniProt E9PP15)
inactive: [1] 0.197 | [2] 0.048 | [3] 0.024 | [4] -0.204 | [5] 0.015 | [6] 0.046 | [7] -0.043 | [8] -0.161 | [9] 0.074 | [10] -0.005 | [11] 0.26 | [12] 0.114 | [13] 0.073 | [14] -0.188 | [15] -0.064 | [16] 0.105 | [17] 0.209 | [18] -0.141 | [20] -0.065
